Data as given in PubChem BioAssay AID588590 (National Center for Advancing Translational Sciences (NCATS), 2011).
In all, about 390,000 compounds went through this assay and about 4,000 (1%) were called active. Inconclusive means that the source gave no clear call. Such entries were picked first, then a sample of the others. Calls follow the shape of the dose curve; as a rule, active = well fitted inhibition curve with a large enough effect; inconclusive = small, poorly fitted or top-dose-only effect, or another doubt; inactive = no such curve, though single readings can be large or run the other way. Potencies of inconclusive entries are doubtful fits and often do not repeat.

Sequences of proteins named here, by UniProt entry; tags and fusion partners are left off. A change or cut given only in a name is not applied to a line headed by its entry.
UniProt Q9UNA4: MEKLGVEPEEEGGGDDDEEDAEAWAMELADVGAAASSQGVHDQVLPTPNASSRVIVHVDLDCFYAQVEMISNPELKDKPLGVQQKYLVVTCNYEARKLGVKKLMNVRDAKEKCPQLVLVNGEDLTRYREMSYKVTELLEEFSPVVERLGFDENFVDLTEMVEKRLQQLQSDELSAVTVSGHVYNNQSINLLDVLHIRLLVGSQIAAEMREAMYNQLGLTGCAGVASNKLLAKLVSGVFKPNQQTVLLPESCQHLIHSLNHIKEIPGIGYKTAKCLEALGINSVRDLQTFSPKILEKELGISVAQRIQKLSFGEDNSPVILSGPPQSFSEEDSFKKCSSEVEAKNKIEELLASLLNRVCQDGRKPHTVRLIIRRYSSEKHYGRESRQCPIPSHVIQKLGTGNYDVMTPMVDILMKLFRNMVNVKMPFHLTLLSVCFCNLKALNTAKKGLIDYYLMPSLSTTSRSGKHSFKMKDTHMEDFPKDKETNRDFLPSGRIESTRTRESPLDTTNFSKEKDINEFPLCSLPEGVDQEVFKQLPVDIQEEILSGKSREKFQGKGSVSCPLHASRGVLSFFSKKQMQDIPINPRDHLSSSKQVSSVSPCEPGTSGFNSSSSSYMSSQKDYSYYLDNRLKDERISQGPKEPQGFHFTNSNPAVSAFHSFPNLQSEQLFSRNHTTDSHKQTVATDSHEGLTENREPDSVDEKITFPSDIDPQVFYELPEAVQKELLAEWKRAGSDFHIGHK

Target: DNA polymerase iota (Homo sapiens) (UniProt Q9UNA4)
Experiment: qHTS for Inhibitors of Polymerase Iota
Conditions: Pol iota fluorescent replication assay, 10 min; series mostly up to 115 µM
Outline: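 Pol iota at 10 nM preincubated 15 min with compounds at room temperature; reaction started with fluorescent substrate, 50 nM final. Fluorescence read kinetically at 0 and 10 min; buffer-only wells as negative control.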
Potency is read from the fitted curve at half-maximal effect.

Row | SMILES | Potency
1 | Cc1ccnc(N/C=C(\C#N)c2nc(-c3cccc(Br)c3)cs2)c1 | inconclusive: 14.1 µM [inhibitor, partial curve, poor fit]
2 | CC(CCC(C)[n+]1cccc(Br)c1)[n+]1cccc(Br)c1 (stereo not given) | inconclusive: 70.8 µM [inhibitor, single point]
3 | Cc1cccc(NC(=O)C(C)SCc2nc3sc4c(c3c(=O)[nH]2)CCCC4)n1 (stereo not given) | inconclusive: 31.6 µM [inhibitor, single point]
4 | Cc1ccc(-n2c(C)c3c(C)nnc(C)c3c2C)cc1C | inconclusive: 39.8 µM [inhibitor, partial curve, poor fit]
5 | COc1ccc(CNC(=O)c2cc3c(-c4ccccc4F)nn(C)c3s2)c(OC)c1 | inactive
6 | CC(C)c1ccc(/C=c2\sc3nc(-c4ccncc4)nn3c2=O)cc1 | inactive
7 | Cc1cc(C)n(-c2ccnc3cc(Cl)ccc23)n1 | inconclusive: 89.1 µM [inhibitor, single point]
8 | COc1cc2nc(SCc3ccc(Cl)cc3)n3nc(CCn4nc(C)cc4C)nc3c2cc1OC | inconclusive: 44.7 µM [inhibitor, partial curve]
9 | CC1=NN(c2ccccc2)C(=O)/C1=C/c1cccc(C)c1 | inconclusive: 0.708 µM [inhibitor, full curve, poor fit]
10 | Cc1nn(CC(=O)NCCc2ccco2)c(=O)c2nn(-c3ccccc3)c(C)c12 | active: 22.4 µM
11 | O=C(N/N=C/c1ccc([N+](=O)[O-])o1)c1cc2c(ccc3ccccc32)o1 | inconclusive: 8.91 µM [inhibitor, full curve, poor fit]
12 | COc1ccc(N2CCN(CCNC(=O)c3ccc4nc5ccccc5c(=O)n4c3)CC2)cc1 | inconclusive: 70.8 µM [inhibitor, partial curve, poor fit]
13 | CC1CCC(NC(=O)CN2C(=O)NC3(CCCCC3C)C2=O)CC1 (stereo not given) | inactive
14 | CCOc1ccc2nc(Cl)c(C3CC(c4ccco4)=NN3S(C)(=O)=O)cc2c1 (stereo not given) | inconclusive: 50.1 µM [inhibitor, partial curve, poor fit]
15 | CNc1ccc(/C=C2\C=Cc3ccccc32)cc1Cl | inactive
16 | COc1ccc(NS(=O)(=O)c2ccc3c(c2)N(C(C)=O)CC(C)S3)c(OC)c1 (stereo not given) | inconclusive: 100 µM [inhibitor, single point]
17 | COCCn1c(C)cc(C(=O)COC(=O)c2cc3c(s2)CCC3)c1C | inconclusive: 15.8 µM [inhibitor, partial curve, poor fit]
18 | COc1ccccc1CNC(=O)CS(=O)(=O)c1cccc2nsnc12 | inactive
19 | Clc1cccc(C2Nc3cccc4cccc(c34)N2)c1Cl | inconclusive: 12.6 µM [inhibitor, partial curve, poor fit]
20 | c1ccc(-c2ccccc2-c2nc(-c3ccncc3)no2)cc1 | inconclusive: 28.2 µM [inhibitor, single point]

Shown in CSV form: 11 of the compounds above
Row,SMILES,Potency
1,Cc1ccnc(N/C=C(\C#N)c2nc(-c3cccc(Br)c3)cs2)c1,"inconclusive: 14.1 µM [inhibitor, partial curve, poor fit]"
4,Cc1ccc(-n2c(C)c3c(C)nnc(C)c3c2C)cc1C,"inconclusive: 39.8 µM [inhibitor, partial curve, poor fit]"
5,COc1ccc(CNC(=O)c2cc3c(-c4ccccc4F)nn(C)c3s2)c(OC)c1,inactive
6,CC(C)c1ccc(/C=c2\sc3nc(-c4ccncc4)nn3c2=O)cc1,inactive
7,Cc1cc(C)n(-c2ccnc3cc(Cl)ccc23)n1,"inconclusive: 89.1 µM [inhibitor, single point]"
8,COc1cc2nc(SCc3ccc(Cl)cc3)n3nc(CCn4nc(C)cc4C)nc3c2cc1OC,"inconclusive: 44.7 µM [inhibitor, partial curve]"
9,CC1=NN(c2ccccc2)C(=O)/C1=C/c1cccc(C)c1,"inconclusive: 0.708 µM [inhibitor, full curve, poor fit]"
10,Cc1nn(CC(=O)NCCc2ccco2)c(=O)c2nn(-c3ccccc3)c(C)c12,active: 22.4 µM
17,COCCn1c(C)cc(C(=O)COC(=O)c2cc3c(s2)CCC3)c1C,"inconclusive: 15.8 µM [inhibitor, partial curve, poor fit]"
19,Clc1cccc(C2Nc3cccc4cccc(c34)N2)c1Cl,"inconclusive: 12.6 µM [inhibitor, partial curve, poor fit]"
20,c1ccc(-c2ccccc2-c2nc(-c3ccncc3)no2)cc1,"inconclusive: 28.2 µM [inhibitor, single point]"

Carrying on.

Row | SMILES | Potency
21 | COc1ccc(-c2oc3ncn4nc(-c5cccc(C)c5)nc4c3c2-c2ccc(OC)cc2)cc1 | inconclusive: 0.708 µM [inhibitor, full curve, poor fit]
22 | COc1ccc(CNC(=O)C2CCN(c3nc4ccccc4[nH]3)CC2)c(OC)c1 | inactive
23 | C/C(N)=C(/C#N)C(=O)CSc1nnc(-c2ccccc2Br)o1 | inconclusive: 10 µM [inhibitor, full curve, poor fit]
24 | Oc1ccccc1-c1nnc(COc2ccc(Cl)cc2Cl)o1 | inconclusive: 44.7 µM [inhibitor, partial curve, poor fit]
25 | Cc1csc(NC(=O)CSc2sc3c(O)cc(=O)[nH]c3c2C#N)n1 | active: 7.94 µM
26 | COC(=O)C1=C(C(=O)OC)SC2(S1)C(C(=O)OC)=C(C(=O)OC)SC1=C2c2cccc(C)c2NC1(C)C | inconclusive: 25.1 µM [inhibitor, single point]
27 | CC(=O)c1ccc(NC(=S)NC(=O)/C=C/c2ccco2)cc1 | inconclusive: 31.6 µM [inhibitor, partial curve]
28 | COC(=O)c1ccccc1NC(=S)NC(NC(=O)c1ccccc1[N+](=O)[O-])C(Cl)(Cl)Cl (stereo not given) | inconclusive: 39.8 µM [inhibitor, single point]
29 | O=C(N/C(=C\c1ccco1)C(=O)N1CCCC1CO)c1ccccc1 (stereo not given) | inconclusive: 20 µM [inhibitor, single point]
30 | CC(C)C(=O)N1CCN(c2ccccc2NC(=O)c2ccc3c(c2)OCCO3)CC1 | inconclusive: 25.1 µM [inhibitor, partial curve, poor fit]
31 | CC(C)N(C(=O)NC(=O)NCC1CCCO1)S(C)(=O)=O (stereo not given) | inconclusive: 89.1 µM [inhibitor, full curve, poor fit]
32 | CCCn1c(NCc2ccco2)nc2ccccc21 | inactive
33 | CC(C)C[C@@H](CN)NC(=O)c1nc[nH]c1C(=O)N[C@@H](CC(C)C)C(=O)CNC[C@H](C)NC(=O)c1nc[nH]c1C(=O)N[C@@H](C)C(=O)O | inconclusive: 11.2 µM [inhibitor, partial curve]
34 | Cc1c(C(=O)O)sc(S(=O)(=O)N2CCN(C(=O)Cc3ccc(Cl)cc3)CC2)c1C(=O)O | inconclusive: 89.1 µM [inhibitor, single point]
35 | O=C(c1ccc(Cl)cc1)[C@@H]1[C@@H]2C(=O)N(c3ccccc3)C(=O)[C@@H]2C2c3ccccc3C=NN21 (stereo not given in full) | inconclusive: 100 µM [inhibitor, partial curve, poor fit]
36 | CCOC(=O)c1c(C)oc2ncnc(Nc3ccc(F)cc3Cl)c12 | inactive
37 | CCC(C)N(C(=O)c1csnn1)C(C(=O)NC(C)(C)C)c1ccccc1 (stereo not given) | inconclusive: 35.5 µM [inhibitor, single point]
38 | CCOc1ccc(-c2c(C(=O)N/N=C(\C)c3cccnc3)nnn2-c2nonc2N)cc1 | inconclusive: 56.2 µM [inhibitor, partial curve, poor fit]
39 | Cc1[nH]c2ccccc2c1SCC(=O)N1CCOCC1 | inconclusive: 100 µM [inhibitor, single point]
40 | Cc1cc(C)cc(NC(=O)CN2C(=O)CSc3ccc(S(=O)(=O)N(C)C)cc32)c1 | inactive
